Laboratory results taken from article PMC7819943, “Rice protein-binding microarrays: a tool to detect cis-acting elements near promoter regions in rice”.
Some of the results follow.

Sequences of proteins named here, by UniProt entry; tags and fusion partners are left off.
UniProt Q0JBA9, entry or part of it: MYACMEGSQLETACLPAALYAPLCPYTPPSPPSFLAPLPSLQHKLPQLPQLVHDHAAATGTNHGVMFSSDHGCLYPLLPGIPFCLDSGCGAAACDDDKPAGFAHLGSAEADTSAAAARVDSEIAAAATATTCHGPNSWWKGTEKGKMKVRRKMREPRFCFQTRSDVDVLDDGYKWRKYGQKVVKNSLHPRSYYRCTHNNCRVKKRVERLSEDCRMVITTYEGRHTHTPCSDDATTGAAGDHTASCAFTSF

molecular target: OsWRKY34 (Oryza sativa, UniProt Q0JBA9 1-250); test: protein-binding microarray (RPBM); PBS, 2% BSA, 51.3 ng/ul salmon testes DNA, 50 uM zinc acetate, 200 nM TF, 25 C, 1 h; high values mean tight binding; details: protein: recombinant; tags: N-terminal polyhistidine and DsRed monomer fusion (pET32a); label: CyDye5-dUTP incorporated in the synthesized complementary strand; 3' TTTTT single-stranded linker to array surface; dsDNA, one strand shown
How it was run: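 Using Ni–NTA, transcription factors fused N-terminally to polyhistidine and DsRed were purified after expression in E. coli BL21-CodonPlus. These were incubated at 200 nM with a blocked, double-stranded custom Agilent array for 1 h at 25 °C in a buffer containing 50 µM zinc acetate, and the array was washed. The binding signal is per-feature fluorescence intensity (arbitrary units) on an Axon 4000B scanner.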

Going from “ATCGTCGCAGTCGGACGGAGCGCCACGCCTTTTGACCGCGCGGAGTCACCTAGTGCAG” to “CGGTTTTTACTATACTGCCCTTGGCTGCACAACCTTTTATCGGAGTCACCTAGTGCAG”, the binding signal rises from 8740 fluorescence intensity (a.u.) to 9080 fluorescence intensity (a.u.).

First: GTCTACTACGGTAGTGTTTGGTTGAGGGGATGGGATGGGACGGAGTCACCTAGTGCAG
Second: TTTTCTCACATGTTTGACCATTCGTCTTATTCAAAAATTTCGGAGTCACCTAGTGCAG
The binding signal of the first is higher: 13900 fluorescence intensity (a.u.) for the first, 9990 fluorescence intensity (a.u.) for the second.

Going from “AGAATCCTGTGTTTTTCCTATTACTCCGTTTTTTCTACCCCGGAGTCACCTAGTGCAG” to “ACCCTTCTCTTCCCCAAATCATCTGGAATCCAACGCCTGACGGAGTCACCTAGTGCAG”, the binding signal falls from 8760 fluorescence intensity (a.u.) to 8160 fluorescence intensity (a.u.).

Going from “TCCAAACACATCACCTCCTATCTCCACCGGCACGCATGCCCGGAGTCACCTAGTGCAG” to “ATGATACACAGACCTTTGACATGTTCAACTCATTTCGTATCGGAGTCACCTAGTGCAG”, the binding signal rises from 8660 fluorescence intensity (a.u.) to 8960 fluorescence intensity (a.u.).

Compared with “AGGTCGTTGTACACAGTGGTAGTTAATTAATTAGTCCATCCGGAGTCACCTAGTGCAG”, “TCTCCTCTCGGCTCTCTTATCTCACCCTTCGTTTCGCTCGCGGAGTCACCTAGTGCAG” is higher in binding signal: 8840 fluorescence intensity (a.u.) for the first, 15000 fluorescence intensity (a.u.) for the second.

Compared with “TGGTCATCATTTGCTATTTTTTCCTGCAGAGGGAATCAATCGGAGTCACCTAGTGCAG”, “ATTAGAGAATAGAAAGTTGTCGTTGACTCCATCTCTTTAACGGAGTCACCTAGTGCAG” is higher in binding signal: 8670 fluorescence intensity (a.u.) for the first, 8690 fluorescence intensity (a.u.) for the second.

First: AACCTTACATGCACCCTGCGTACTTTGATTTGCACACAATCGGAGTCACCTAGTGCAG
Second: AATGCCCATAAAATCAATGCAACACTTTCCCCATTTCACTCGGAGTCACCTAGTGCAG
The binding signal of the first is higher: 9240 fluorescence intensity (a.u.) for the first, 8090 fluorescence intensity (a.u.) for the second.

Compared with “TGCACACACCCTCCCTTTGGCTTTCATCTGCATCTATTCACGGAGTCACCTAGTGCAG”, “CATACTCTTTACCTTTTTTTTTGGCTCAGAGTTGGAAGCACGGAGTCACCTAGTGCAG” is lower in binding signal: 11000 fluorescence intensity (a.u.) for the first, 8410 fluorescence intensity (a.u.) for the second.

First: GTTGTTTTTTTCCTGTGATGGAGGGTGTAGGTCGTAAAGTCGGAGTCACCTAGTGCAG
Second: TTTTGCTTTGCGACACCGTACGTCCATGTTGCCCCAAACACGGAGTCACCTAGTGCAG
The binding signal of the first is lower: 8730 fluorescence intensity (a.u.) for the first, 9120 fluorescence intensity (a.u.) for the second.

First: CCGCCCAAAACCACCGCCAAACCTCGCCGCCGAGCTGCCACGGAGTCACCTAGTGCAG
Second: GTTGATGAGTTTGTAAGGGTGCTCTTTTTAGAGAGGGAGGCGGAGTCACCTAGTGCAG
The binding signal of the first is higher: 8760 fluorescence intensity (a.u.) for the first, 8140 fluorescence intensity (a.u.) for the second.

First: ATCTCTTGTGGCCTGAGTTTTTGGAGCTCTTCTCGTTGAACGGAGTCACCTAGTGCAG
Second: GCACGTGATGCTGATCCATCCATTGCTTGCGCGGCGGTGACGGAGTCACCTAGTGCAG
The binding signal of the first is lower: 8320 fluorescence intensity (a.u.) for the first, 8340 fluorescence intensity (a.u.) for the second.

For “GTTCACGCTGTTACGTACGCCCGCGGTCGTCACGACCGCACGGAGTCACCTAGTGCAG”, the binding signal was 8400 fluorescence intensity (a.u.).
